Experimental data: PubChem BioAssay AID248 (DTP/NCI, 2004)
The list does not hold the whole screen: it is rich in T/C values a quarter to a half above the control, in often repeated tests (any T/C) and in doses without a T/C. Other doses and runs of a compound stand elsewhere. T/C gives the treated animals as a percentage of the vehicle group. For survival time, this PubChem deposit counts one and a half times the control or more as active, and values a quarter to a half above the control carry no call in these data; other NCI protocols may use other cut-offs. Schedule codes are those of the source, read here as Q, the interval in days (D) or hours (H), X, the number of doses. Some entries were tested several times; their values stand side by side, smallest first. Additions like (4×) say how often a value occurs here. Some schedules carry Z or #; the key to these is not given. Some T/C values are followed by the survivors on the day toxicity was checked, most often the fifth; without a count, all were alive then.

Tested on: L1210 leukemia ip in BDF1 mice, survival T/C
Assay: NCI In Vivo Anticancer Drug Screen. Data for tumor model L1210 Leukemia (intraperitoneal) in B6D2F1 (BDF1) mice
Conditions: T/C endpoint: mean survival time, higher T/C = longer survival

S=c1nc[nH]c2nc[nH]c12
T/C (dose: 27.0 mg/kg/injection, schedule: Q## X009 (ip), vehicle: alkali diluted with saline): 142 % of control | T/C (dose: 28.0 mg/kg/injection, schedule: Q01DX Z (ip), vehicle: carboxymethylcellulose (CMC)): 136, 141, 149, 162, 166, 177, 181, 183, 195 % of control | T/C (dose: 28.0 mg/kg/injection, schedule: Q01DX Z (oral), vehicle: carboxymethylcellulose (CMC)): 132, 134, 135, 147, 164 % of control | T/C (dose: 29.0 mg/kg/injection, schedule: Q01DX009 (ip), vehicle: alkali diluted with saline): 118, 122, 124, 131 % of control | T/C (dose: 30.0 mg/kg/injection, schedule: Q01DX001 (ip), vehicle: saline, evaluated on day 30): 129, 133, 136 (2×), 138, 140, 149, 152 % of control | T/C (dose: 30.0 mg/kg/injection, schedule: Q01DX001 (ip), vehicle: saline, evaluated on day 35): 109 % of control | T/C (dose: 30.0 mg/kg/injection, schedule: Q01DX005 (ip), vehicle: saline): 131 % of control | T/C (dose: 30.0 mg/kg/injection, schedule: Q01DX009 (ip), vehicle: alkali diluted with saline): 128 % of control | T/C (dose: 30.0 mg/kg/injection, schedule: Q01DX009 (ip), vehicle: saline): 126 % of control | T/C (dose: 30.0 mg/kg/injection, schedule: Q01DX014 (ip), vehicle: alkali diluted with saline): 138 and 143 % of control | T/C (dose: 30.0 mg/kg/injection, schedule: Q01DX015 (ip), vehicle: alkali diluted with saline): 129 % of control | T/C (dose: 30.0 mg/kg/injection, schedule: Q01DX015 (ip), vehicle: other): 138 % of control | T/C (dose: 30.0 mg/kg/injection, schedule: Q01DX015 (ip), vehicle: saline): 132 % of control | T/C (dose: 30.0 mg/kg/injection, schedule: Q03DX Z (ip), vehicle: other): 148 % of control | T/C (dose: 33.0 mg/kg/injection, schedule: Q02DX010 (ip), vehicle: carboxymethylcellulose (CMC)): 147 (2×), 173, 176, 192, 193, 195, 201, 208, 210 % of control | T/C (dose: 33.5 mg/kg/injection, schedule: Q02DX010 (ip), vehicle: other): 140 % of control | T/C (dose: 34.17 mg/kg/injection, schedule: Q02DX010 (ip), vehicle: carboxymethylcellulose (CMC)): 150, 172, 181, 209, 210 % of control | T/C (dose: 35.0 mg/kg/injection, schedule: Q01DX001 (ip), vehicle: other): 137 % of control | T/C (dose: 38.0 mg/kg/injection, schedule: Q02DX010 (ip), vehicle: alkali diluted with saline): 132 % of control | T/C (dose: 39.0 mg/kg/injection, schedule: Q01DX009 (ip), vehicle: other): 137 % of control | T/C (dose: 40.0 mg/kg/injection, schedule: Q01DX001 (ip), vehicle: carboxymethylcellulose (CMC)): 134 and 136 % of control | T/C (dose: 40.0 mg/kg/injection, schedule: Q01DX005 (ip), vehicle: alkali diluted with water): 130 % of control | T/C (dose: 40.0 mg/kg/injection, schedule: Q01DX005 (ip), vehicle: other): 116, 117, 118, 121, 122 (2×), 127, 129, 131, 134, 135 (2×), 146 % of control | T/C (dose: 40.0 mg/kg/injection, schedule: Q01DX009 (ip), vehicle: alkali diluted with saline, evaluated on day 5): 127 and 142 % of control | T/C (dose: 40.0 mg/kg/injection, schedule: Q01DX009 (ip), vehicle: alkali diluted with saline, evaluated on day 45): 121, 125, 153, 161 % of control | T/C (dose: 40.0 mg/kg/injection, schedule: Q01DX009 (oral), vehicle: saline with Tween-80): 140 % of control | T/C (dose: 40.0 mg/kg/injection, schedule: Q01DX010 (ip), vehicle: alkali diluted with saline): 113, 120, 128, 131 % of control | T/C (dose: 40.0 mg/kg/injection, schedule: Q01DX015 (ip), vehicle: alkali diluted with saline, evaluated on day 5): 115, 123, 127 (2×), 128, 133, 134, 135, 136, 137 (2×), 145 % of control | T/C (dose: 40.0 mg/kg/injection, schedule: Q01DX015 (ip), vehicle: alkali diluted with saline, evaluated on day 35): 134 % of control | T/C (dose: 40.0 mg/kg/injection, schedule: Q01DX015 (ip), vehicle: alkali diluted with saline, evaluated on day 45): 127, 133, 135, 137 % of control (2×) | T/C (dose: 40.0 mg/kg/injection, schedule: Q01DX015 (ip), vehicle: alkali diluted with saline, evaluated on day 46): 108 % of control | T/C (dose: 40.0 mg/kg/injection, schedule: Q01DX Z (im), vehicle: other): 143 % of control | T/C (dose: 40.0 mg/kg/injection, schedule: Q01DX Z (ip), vehicle: carboxymethylcellulose (CMC)): 145 % of control | T/C (dose: 40.0 mg/kg/injection, schedule: Q01DX Z (sc), vehicle: other): 145 % of control | T/C (dose: 40.0 mg/kg/injection, schedule: Q## X009 (ip), vehicle: alkali diluted with saline): 142 % of control | T/C (dose: 40.0 mg/kg/injection, schedule: Q## X015 (ip), vehicle: alkali diluted with saline): 145 % of control | T/C (dose: 40.0 mg/kg/injection, schedule: Q## X032 (ip), vehicle: alkali diluted with saline): 146 % of control | T/C (dose: 44.0 mg/kg/injection, schedule: Q01DX015 (ip), vehicle: alkali diluted with saline): 134 % of control | T/C (dose: 45.0 mg/kg/injection, schedule: Q01DX009 (ip), vehicle: alkali diluted with saline): 134 % of control | T/C (dose: 45.0 mg/kg/injection, schedule: Q01DX009 (ip), vehicle: carboxymethylcellulose (CMC)): 139 % of control | T/C (dose: 45.0 mg/kg/injection, schedule: Q01DX015 (ip), vehicle: other): 142 and 144 % of control | T/C (dose: 49.5 mg/kg/injection, schedule: Q02DX010 (ip), vehicle: carboxymethylcellulose (CMC)): 146, 172, 173, 176, 188 % of control | T/C (dose: 50.0 mg/kg/injection, schedule: Q01DX001 (ip), vehicle: steroid suspending solution): 137 % of control | T/C (dose: 50.0 mg/kg/injection, schedule: Q01DX015 (ip), vehicle: alkali diluted with saline, evaluated on day 5): 132, 147, 148, 168 % of control | T/C (dose: 50.0 mg/kg/injection, schedule: Q01DX015 (ip), vehicle: alkali diluted with saline, evaluated on day 30): 132 and 168 % of control | T/C (dose: 50.0 mg/kg/injection, schedule: Q01DX015 (ip), vehicle: alkali diluted with saline, evaluated on day 45): 148 % of control | T/C (dose: 50.0 mg/kg/injection, schedule: Q01DX015 (ip), vehicle: alkali diluted with saline, evaluated on day 46): 138 % of control | T/C (dose: 50.0 mg/kg/injection, schedule: Q01DX Z (ip), vehicle: other): 135 % of control | T/C (dose: 50.0 mg/kg/injection, schedule: Q02DX010 (ip), vehicle: carboxymethylcellulose (CMC)): 168, 171, 196 % of control (2×) | T/C (dose: 50.0 mg/kg/injection, schedule: Q02DX010 (ip), vehicle: other): 128 [4 of 5 alive], 166, 169, 182 % of control | T/C (dose: 50.0 mg/kg/injection, schedule: Q## X015 (ip), vehicle: alkali diluted with saline): 149 % of control | T/C (dose: 51.0 mg/kg/injection, schedule: Q02DX010 (ip), vehicle: carboxymethylcellulose (CMC)): 144, 146, 152, 166, 172, 197 % of control | T/C (dose: 56.0 mg/kg/injection, schedule: Q01DX Z (ip), vehicle: carboxymethylcellulose (CMC)): 122, 125, 151, 160 % of control | T/C (dose: 56.0 mg/kg/injection, schedule: Q01DX Z (oral), vehicle: carboxymethylcellulose (CMC)): 133, 151, 167, 168, 176 % of control | T/C (dose: 56.3 mg/kg/injection, schedule: Q01DX015 (ip), vehicle: other): 134 % of control | T/C (dose: 57.0 mg/kg/injection, schedule: Q01DX009 (ip), vehicle: alkali diluted with saline): 137, 139, 144, 148 % of control | T/C (dose: 57.0 mg/kg/injection, schedule: Q02DX010 (ip), vehicle: alkali diluted with saline): 144 % of control | T/C (dose: 59.0 mg/kg/injection, schedule: Q01DX001 (ip), vehicle: carboxymethylcellulose (CMC)): 137 % of control | T/C (dose: 60.0 mg/kg/injection, schedule: Q01DX001 (ip), vehicle: carboxymethylcellulose (CMC)): 137 % of control | T/C (dose: 60.0 mg/kg/injection, schedule: Q01DX001 (ip), vehicle: saline, evaluated on day 30): 131, 142, 144, 145, 149 (2×), 157, 160 % of control | T/C (dose: 60.0 mg/kg/injection, schedule: Q01DX001 (ip), vehicle: saline, evaluated on day 35): 117 % of control | T/C (dose: 60.0 mg/kg/injection, schedule: Q01DX005 (ip), vehicle: saline): 126 % of control | T/C (dose: 60.0 mg/kg/injection, schedule: Q01DX009 (ip), vehicle: alkali diluted with saline, evaluated on day 5): 134 and 160 % of control | T/C (dose: 60.0 mg/kg/injection, schedule: Q01DX009 (ip), vehicle: alkali diluted with saline, evaluated on day 45): 140, 144, 164, 204 % of control | T/C (dose: 60.0 mg/kg/injection, schedule: Q01DX009 (ip), vehicle: alkali diluted with saline, evaluated on day 60): 133 and 150 % of control | T/C (dose: 60.0 mg/kg/injection, schedule: Q01DX009 (ip), vehicle: carboxymethylcellulose (CMC)): 131 % of control | T/C (dose: 60.0 mg/kg/injection, schedule: Q01DX014 (ip), vehicle: alkali diluted with saline): 137 and 144 % of control | T/C (dose: 60.0 mg/kg/injection, schedule: Q01DX015 (ip), vehicle: alkali diluted with saline, evaluated on day 5): 125, 138, 139, 140, 149, 151 (2×), 155, 159, 161, 164, 169 % of control | T/C (dose: 60.0 mg/kg/injection, schedule: Q01DX015 (ip), vehicle: alkali diluted with saline, evaluated on day 35): 161 % of control | T/C (dose: 60.0 mg/kg/injection, schedule: Q01DX015 (ip), vehicle: alkali diluted with saline, evaluated on day 45): 138, 140, 151, 164, 169 % of control | T/C (dose: 60.0 mg/kg/injection, schedule: Q01DX015 (ip), vehicle: alkali diluted with saline, evaluated on day 46): 130 % of control | T/C (dose: 60.0 mg/kg/injection, schedule: Q01HX006 (ip), vehicle: saline): 138 % of control | T/C (dose: 60.0 mg/kg/injection, schedule: Q02DX008 (ip), vehicle: alkali diluted with saline): 125 and 132 % of control
